This passage reports binding signal results from PMC7819943, “Rice protein-binding microarrays: a tool to detect cis-acting elements near promoter regions in rice”.

This is one part of the list.

The target of this assay is T1, OsSMF1 (Oryza sativa, UniProt Q6ZLB0 1-436).
T1 sequence: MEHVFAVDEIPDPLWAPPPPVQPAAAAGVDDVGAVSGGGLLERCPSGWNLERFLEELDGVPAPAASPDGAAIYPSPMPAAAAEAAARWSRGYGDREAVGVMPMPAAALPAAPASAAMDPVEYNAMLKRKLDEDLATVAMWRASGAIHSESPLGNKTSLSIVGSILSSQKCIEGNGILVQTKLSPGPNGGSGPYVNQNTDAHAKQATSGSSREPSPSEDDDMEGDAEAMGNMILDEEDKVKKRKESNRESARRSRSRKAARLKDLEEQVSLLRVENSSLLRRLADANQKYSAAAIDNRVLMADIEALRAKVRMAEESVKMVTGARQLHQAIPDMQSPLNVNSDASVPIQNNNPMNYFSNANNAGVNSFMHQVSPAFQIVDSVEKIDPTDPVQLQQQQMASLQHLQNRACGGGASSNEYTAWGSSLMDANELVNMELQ
As to the kind of experiment: protein-binding microarray (RPBM); PBS, 2% BSA, 51.3 ng/ul salmon testes DNA, 50 uM zinc acetate, 200 nM TF, 25 C, 1 h; high values mean tight binding. Particulars: protein: recombinant; tags: N-terminal polyhistidine and DsRed monomer fusion (pET32a); chain copies: 2; label: CyDye5-dUTP incorporated in the synthesized complementary strand; 3' TTTTT single-stranded linker to array surface; dsDNA, one strand shown. A digest of the protocol:
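The binding signal for each feature is its fluorescence intensity in arbitrary units. An Axon 4000B scanner was used to read a custom Agilent array that had been made double-stranded with Cy5-dUTP primer extension, blocked with 2% BSA, incubated at 25 °C for 1 h with 200 nM protein in PBS, 2% BSA, salmon testes DNA and 50 µM zinc acetate, and washed. The protein was an N-terminal polyhistidine–DsRed transcription factor fusion from E. coli BL21-CodonPlus, purified on Ni–NTA.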
Consider “CAATTCGATTCGTATCCCCACGTGCTCTTTCTTCTTCCTCCGGAGTCACCTAGTGCAG”, for which the binding signal was 4170 fluorescence intensity (a.u.).

Consider “CCCACATTTCAGTCACTAACCATAGGTGACACAGCTTTCGCGGAGTCACCTAGTGCAG”, for which the binding signal is 4570 fluorescence intensity (a.u.). On to “AGGTTGTCAGTGCTGACTGCTGACTGTGCTTGCACAGTTACGGAGTCACCTAGTGCAG”, for which the binding signal was 8180 fluorescence intensity (a.u.). On to “CCTATCGTGTGTTGCCGCGACCGCGCGCGACCCCGCGGCTCGGAGTCACCTAGTGCAG”, for which the binding signal was 3810 fluorescence intensity (a.u.). As to “AACCCAACTCAATGGCTCTAGCTTATTTTGTAATATCACTCGGAGTCACCTAGTGCAG”, the binding signal was 3480 fluorescence intensity (a.u.).

On to “CAACGTCTGCTGCACGGCTTATTGCGTGGCTGTGAACGTCCGGAGTCACCTAGTGCAG”, for which the binding signal is 3280 fluorescence intensity (a.u.). As for “TCCACCGCTATCGGGTCGCACGTCACTGCTGGACTAACCACGGAGTCACCTAGTGCAG”, the binding signal is 9370 fluorescence intensity (a.u.).

For the sequence “AGTCGTATTCTACACATGACTACGTAGTTCTACGTTTACGCGGAGTCACCTAGTGCAG”, the binding signal was 3770 fluorescence intensity (a.u.). As to “CGATTATACGGACGTTCTAATGCTCTCGTCACACAAACTACGGAGTCACCTAGTGCAG”, the binding signal is 3840 fluorescence intensity (a.u.). In the case of “TCTTGGAAAAGAACACATGTGGGTAATCATCGTGAGATGTCGGAGTCACCTAGTGCAG” it was 3360 fluorescence intensity (a.u.); in that of “TAGGAGGCCCACGTGGGCGACGACGGCAGGAGACCACCATCGGAGTCACCTAGTGCAG”, 3660 fluorescence intensity (a.u.). Consider “CTTTAATAACCCTCCACGTGTTCCAGTGCGCCACCCATCACGGAGTCACCTAGTGCAG”, for which the binding signal is 11900 fluorescence intensity (a.u.). On to “ATGCTTCTACGCAGTTGAGTTGTCACAGCCTGATTTTCGTCGGAGTCACCTAGTGCAG”, for which the binding signal is 5420 fluorescence intensity (a.u.). As for “GTCAAAGTTATAAAAGTTTGACCTCAACTTTGTCCAAAACCGGAGTCACCTAGTGCAG”, the binding signal is 24200 fluorescence intensity (a.u.). As for “TGTCAAAATTTTGACTGTTACTCGTTGGGACTATGGACCTCGGAGTCACCTAGTGCAG”, the binding signal was 17900 fluorescence intensity (a.u.). In the case of “TCACTCCAACTCGCCTCCCGTCCCTGACATTGGCAGCTTCCGGAGTCACCTAGTGCAG”, the binding signal is 3260 fluorescence intensity (a.u.). Consider “GAGTCTAGTTAGTTCATGATTAGGCATAAGTGCTGCATTACGGAGTCACCTAGTGCAG”, for which the binding signal was 3340 fluorescence intensity (a.u.). In the case of “GCACATACATGTACAATGAGATGACAAAATCACGCGTCATCGGAGTCACCTAGTGCAG”, the binding signal was 5190 fluorescence intensity (a.u.).

In the case of “GACATCTGGAGGCGTCATGCAAGATGTCACATCCATAGAACGGAGTCACCTAGTGCAG”, the binding signal was 3940 fluorescence intensity (a.u.). Regarding “AAACCTTATAGTTGTTTAAATTCTCGAAACAAGGTCCCTGCGGAGTCACCTAGTGCAG”, the binding signal is 3180 fluorescence intensity (a.u.). “CGCCGCCGCTCCCGCCACCGCCACATCCCTTGCCGGTGATCGGAGTCACCTAGTGCAG”: the binding signal is 3240 fluorescence intensity (a.u.).

On to “GTTCCACATTTCAGCATTAATGAATTGGCATACGTGATGACGGAGTCACCTAGTGCAG”, for which the binding signal is 3360 fluorescence intensity (a.u.).

On to “AAGCACATCACCAAGACCATGGTGAAGTCTTATAGGCATGCGGAGTCACCTAGTGCAG”, for which the binding signal was 3430 fluorescence intensity (a.u.). Regarding “GCAGATGCAGTCACATGTTCTTTTCTCTCTCATCACCATGCGGAGTCACCTAGTGCAG”, the binding signal is 3530 fluorescence intensity (a.u.).

As to “TGTGGGATGGATTTGTGGTGATTGAGAGGGTTTGAAAGGGCGGAGTCACCTAGTGCAG”, the binding signal was 3190 fluorescence intensity (a.u.). With “GGGCCTCAATTTCCAACCCATCTACGTGTTCAGACTACAGCGGAGTCACCTAGTGCAG”, the binding signal was 3480 fluorescence intensity (a.u.). For the sequence “AGTGTGGAGAAACTGTAACATGGCCTTTGAAAAGCTGTCACGGAGTCACCTAGTGCAG”, the binding signal is 15800 fluorescence intensity (a.u.).

For “ACTCTCTCCTGTGACTGTGTGTGTGTGCGCGTGTGCGTGCCGGAGTCACCTAGTGCAG”, the binding signal was 6270 fluorescence intensity (a.u.). As to “TAGTGATTACATCACTACTGATAGCCTGATATATGGCAAGCGGAGTCACCTAGTGCAG”, the binding signal is 4060 fluorescence intensity (a.u.). Regarding “CGGGTGTGCGTCACCGGAGGCGCCGGCTTCATCGCCTCGTCGGAGTCACCTAGTGCAG”, the binding signal is 7270 fluorescence intensity (a.u.). Take “CTATTTAAAACGTGACGCAATGCAGCGATAGAGCACCTTGCGGAGTCACCTAGTGCAG”: the binding signal is 5260 fluorescence intensity (a.u.).

Turning to “CTATAGGTTGCCGGCACGTGCGACCTGCTCCGTAGCGAGCCGGAGTCACCTAGTGCAG”, the binding signal is 3370 fluorescence intensity (a.u.). In the case of “CAATCAGCTATCGTATGTATGTAGAAGATACACATGGCATCGGAGTCACCTAGTGCAG”, the binding signal is 3150 fluorescence intensity (a.u.). With “AGCACAAACCGACGGCGAGCTGCCCTCCTTATCCTCCGATCGGAGTCACCTAGTGCAG”, the binding signal is 29800 fluorescence intensity (a.u.). Regarding “CGTCTGAAGTCCGGGCTCCTGCAGGCAGCATTATACCCATCGGAGTCACCTAGTGCAG”, the binding signal was 3280 fluorescence intensity (a.u.).

Take “TTATTCTCTTTGGTCTGCAAAGAGACAACGCATTATGCTACGGAGTCACCTAGTGCAG”: the binding signal is 3150 fluorescence intensity (a.u.). “ACTTTCTGATGTGTGGATAAGGCCTGCATTTGGTGGACGTCGGAGTCACCTAGTGCAG”: the binding signal was 5290 fluorescence intensity (a.u.). Under “CTCCAGCCTAAAATAAGTGCAGCCGTGGATATCTGTGTCCCGGAGTCACCTAGTGCAG” stands 22000 fluorescence intensity (a.u.). “ATTACCACGATCCATTCAGATCCTACGTGGCGCTCGCGCGCGGAGTCACCTAGTGCAG”: the binding signal is 16100 fluorescence intensity (a.u.). For the sequence “GTTGGGTTGGGTCGAGTTGGAGTGGGCCTTCTTATCTTGACGGAGTCACCTAGTGCAG”, the binding signal was 4480 fluorescence intensity (a.u.). On to “CCTGGCAAGGATGACGTCCAAGAAATCTGCACGGTTTCTTCGGAGTCACCTAGTGCAG”, for which the binding signal is 4050 fluorescence intensity (a.u.).

For the sequence “CCCATCCACCAGCTCACAATGTCATGTCACTATGCATCTCCGGAGTCACCTAGTGCAG”, the binding signal is 6200 fluorescence intensity (a.u.).
